The other results are listed elsewhere or left out.
Experiments:
Assay in all cases: log2 fold change, soluble protein after heating vs DMSO (PISA); higher = thermal stabilisation; K562 cells, 10 uM, 30 min; active = over 0.2 and 3.5 SD of the protein, either way, in both replicates (recomputed)
[1] = compound: C1=CC=C(C=C1)[C@H](COC2=CC3=C(C=C2)NC(=O)N3)NC(=O)C4=CC=CN(C4=O)CC5=CC(=C(C=C5)F)F
Method in brief: (§1)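 Thermal stability values are relative to control samples and come from duplicates. They are expressed as log2 fold changes. For measurement, K562 cells (2×10^6 cells/mL) received 10 μM compound for 30 min, and aliquots were heated for 3 min over 48°C-58°C, pooled, and extracted at 4°C in PBS with 0.5% NP-40. Soluble protein, the supernatant after 21,000xg for 90 min, was quantified by TMTpro 16plex LC-MS/MS with equalised channel sums.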

Amino acid sequences for entries named in this document (tags omitted). A change or cut given only in a name is not applied to a line headed by its entry.
UniProt P00519, whole entry, looked up: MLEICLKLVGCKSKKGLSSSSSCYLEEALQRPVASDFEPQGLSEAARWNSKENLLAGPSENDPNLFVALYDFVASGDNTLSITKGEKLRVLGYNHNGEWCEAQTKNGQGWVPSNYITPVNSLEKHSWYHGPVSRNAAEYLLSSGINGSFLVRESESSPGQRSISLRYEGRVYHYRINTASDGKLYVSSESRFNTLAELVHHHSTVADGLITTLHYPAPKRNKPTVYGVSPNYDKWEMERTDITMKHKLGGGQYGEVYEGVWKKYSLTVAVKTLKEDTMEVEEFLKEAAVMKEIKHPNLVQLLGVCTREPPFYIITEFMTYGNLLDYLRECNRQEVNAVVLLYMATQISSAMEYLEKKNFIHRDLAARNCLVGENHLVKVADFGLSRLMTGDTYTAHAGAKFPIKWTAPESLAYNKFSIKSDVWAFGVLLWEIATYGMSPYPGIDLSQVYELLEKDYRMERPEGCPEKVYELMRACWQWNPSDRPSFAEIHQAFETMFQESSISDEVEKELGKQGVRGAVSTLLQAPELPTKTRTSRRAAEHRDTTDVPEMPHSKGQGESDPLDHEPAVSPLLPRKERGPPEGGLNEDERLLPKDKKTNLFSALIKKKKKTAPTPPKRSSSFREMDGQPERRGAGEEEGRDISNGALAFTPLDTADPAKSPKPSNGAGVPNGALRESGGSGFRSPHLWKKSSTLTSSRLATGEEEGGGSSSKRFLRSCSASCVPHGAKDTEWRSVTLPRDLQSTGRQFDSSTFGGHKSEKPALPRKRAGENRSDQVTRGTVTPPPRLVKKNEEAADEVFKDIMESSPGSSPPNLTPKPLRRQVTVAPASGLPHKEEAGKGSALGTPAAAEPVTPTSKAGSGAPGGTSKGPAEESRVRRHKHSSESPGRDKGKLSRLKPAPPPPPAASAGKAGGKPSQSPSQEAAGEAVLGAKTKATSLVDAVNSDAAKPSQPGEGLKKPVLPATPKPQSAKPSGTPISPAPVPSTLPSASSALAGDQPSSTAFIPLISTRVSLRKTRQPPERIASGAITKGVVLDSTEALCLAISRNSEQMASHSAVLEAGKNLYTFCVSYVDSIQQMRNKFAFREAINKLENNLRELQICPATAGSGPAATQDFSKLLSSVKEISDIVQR
UniProt Q9ULC5: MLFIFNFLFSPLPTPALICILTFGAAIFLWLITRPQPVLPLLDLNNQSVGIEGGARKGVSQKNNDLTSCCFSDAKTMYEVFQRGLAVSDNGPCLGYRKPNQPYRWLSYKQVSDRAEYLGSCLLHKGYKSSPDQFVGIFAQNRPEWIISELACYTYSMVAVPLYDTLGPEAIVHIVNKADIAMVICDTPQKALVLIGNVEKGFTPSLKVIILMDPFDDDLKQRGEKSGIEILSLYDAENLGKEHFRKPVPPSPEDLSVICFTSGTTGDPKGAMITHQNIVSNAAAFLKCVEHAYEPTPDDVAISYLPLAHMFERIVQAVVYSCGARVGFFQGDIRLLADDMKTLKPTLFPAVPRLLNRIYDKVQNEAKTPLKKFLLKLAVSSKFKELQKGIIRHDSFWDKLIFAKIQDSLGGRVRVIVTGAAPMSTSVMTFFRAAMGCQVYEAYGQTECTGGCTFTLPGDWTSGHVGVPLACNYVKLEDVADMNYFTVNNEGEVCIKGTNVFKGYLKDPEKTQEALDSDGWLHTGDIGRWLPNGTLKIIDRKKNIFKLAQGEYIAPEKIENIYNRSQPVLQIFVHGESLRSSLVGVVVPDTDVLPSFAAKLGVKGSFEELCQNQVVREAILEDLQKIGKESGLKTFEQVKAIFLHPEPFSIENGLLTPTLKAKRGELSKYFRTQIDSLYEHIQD
UniProt P49748: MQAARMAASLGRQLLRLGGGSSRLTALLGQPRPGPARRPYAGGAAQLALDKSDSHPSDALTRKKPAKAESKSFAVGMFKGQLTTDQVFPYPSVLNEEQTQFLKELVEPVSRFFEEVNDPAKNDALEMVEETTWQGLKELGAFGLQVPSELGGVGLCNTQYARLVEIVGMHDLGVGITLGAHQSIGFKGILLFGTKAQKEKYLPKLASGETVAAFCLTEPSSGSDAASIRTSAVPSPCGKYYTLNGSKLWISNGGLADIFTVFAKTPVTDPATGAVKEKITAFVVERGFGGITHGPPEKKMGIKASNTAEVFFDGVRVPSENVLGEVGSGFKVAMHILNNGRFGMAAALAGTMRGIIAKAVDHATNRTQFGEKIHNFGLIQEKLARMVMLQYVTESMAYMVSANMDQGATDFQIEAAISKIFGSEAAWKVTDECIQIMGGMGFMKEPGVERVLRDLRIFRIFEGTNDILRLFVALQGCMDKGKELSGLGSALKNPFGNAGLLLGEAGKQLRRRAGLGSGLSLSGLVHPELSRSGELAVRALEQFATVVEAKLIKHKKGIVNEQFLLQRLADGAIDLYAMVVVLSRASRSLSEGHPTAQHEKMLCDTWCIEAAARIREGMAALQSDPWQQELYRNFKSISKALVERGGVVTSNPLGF
UniProt Q9P1F3: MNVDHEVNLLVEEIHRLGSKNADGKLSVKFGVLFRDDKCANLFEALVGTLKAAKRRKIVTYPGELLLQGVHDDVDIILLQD
UniProt P55265: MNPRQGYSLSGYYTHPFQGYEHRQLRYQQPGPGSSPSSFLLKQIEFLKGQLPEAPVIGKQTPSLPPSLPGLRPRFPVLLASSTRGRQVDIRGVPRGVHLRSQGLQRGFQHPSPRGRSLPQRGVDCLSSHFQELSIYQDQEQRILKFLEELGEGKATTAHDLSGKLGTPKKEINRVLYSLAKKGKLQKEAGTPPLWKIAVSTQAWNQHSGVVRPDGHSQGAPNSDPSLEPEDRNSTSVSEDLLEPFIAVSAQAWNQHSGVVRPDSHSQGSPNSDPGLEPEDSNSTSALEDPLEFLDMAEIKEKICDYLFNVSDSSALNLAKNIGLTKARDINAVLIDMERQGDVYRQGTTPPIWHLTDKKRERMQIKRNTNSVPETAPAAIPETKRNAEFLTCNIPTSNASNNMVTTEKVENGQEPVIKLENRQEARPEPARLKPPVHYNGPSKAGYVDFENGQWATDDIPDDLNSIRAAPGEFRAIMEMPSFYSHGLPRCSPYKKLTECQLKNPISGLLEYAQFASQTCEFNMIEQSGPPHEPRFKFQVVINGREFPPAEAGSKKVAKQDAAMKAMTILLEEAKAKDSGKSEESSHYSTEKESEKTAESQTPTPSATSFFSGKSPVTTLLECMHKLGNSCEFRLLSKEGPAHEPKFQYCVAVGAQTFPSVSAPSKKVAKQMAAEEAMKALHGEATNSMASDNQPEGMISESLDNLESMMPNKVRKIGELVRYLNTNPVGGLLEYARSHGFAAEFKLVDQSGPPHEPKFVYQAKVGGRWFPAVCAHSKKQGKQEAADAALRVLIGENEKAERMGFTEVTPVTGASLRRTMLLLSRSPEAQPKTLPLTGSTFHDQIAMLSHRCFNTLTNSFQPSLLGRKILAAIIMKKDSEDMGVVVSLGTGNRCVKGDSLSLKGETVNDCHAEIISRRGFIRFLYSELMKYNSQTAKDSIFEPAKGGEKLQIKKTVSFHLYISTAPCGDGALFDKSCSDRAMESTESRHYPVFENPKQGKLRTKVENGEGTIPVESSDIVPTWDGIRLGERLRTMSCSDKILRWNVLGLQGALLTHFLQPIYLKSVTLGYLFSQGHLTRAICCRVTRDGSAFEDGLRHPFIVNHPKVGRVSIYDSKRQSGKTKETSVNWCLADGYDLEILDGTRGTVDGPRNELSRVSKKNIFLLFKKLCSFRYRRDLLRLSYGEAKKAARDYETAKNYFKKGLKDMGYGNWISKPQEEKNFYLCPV
UniProt Q9BR61: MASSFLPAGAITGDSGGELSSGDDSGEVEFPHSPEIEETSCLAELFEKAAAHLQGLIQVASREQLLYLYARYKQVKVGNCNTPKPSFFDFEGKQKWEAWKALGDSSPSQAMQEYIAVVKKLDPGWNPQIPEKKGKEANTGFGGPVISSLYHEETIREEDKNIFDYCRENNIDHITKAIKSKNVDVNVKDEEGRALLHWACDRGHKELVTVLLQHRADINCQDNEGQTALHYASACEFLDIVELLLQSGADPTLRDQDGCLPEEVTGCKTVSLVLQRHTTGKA
UniProt Q9NPJ3: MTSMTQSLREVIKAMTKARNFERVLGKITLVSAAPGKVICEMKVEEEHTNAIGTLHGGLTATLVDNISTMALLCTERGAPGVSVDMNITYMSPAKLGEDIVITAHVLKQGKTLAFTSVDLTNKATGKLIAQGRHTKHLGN
UniProt Q8TB40: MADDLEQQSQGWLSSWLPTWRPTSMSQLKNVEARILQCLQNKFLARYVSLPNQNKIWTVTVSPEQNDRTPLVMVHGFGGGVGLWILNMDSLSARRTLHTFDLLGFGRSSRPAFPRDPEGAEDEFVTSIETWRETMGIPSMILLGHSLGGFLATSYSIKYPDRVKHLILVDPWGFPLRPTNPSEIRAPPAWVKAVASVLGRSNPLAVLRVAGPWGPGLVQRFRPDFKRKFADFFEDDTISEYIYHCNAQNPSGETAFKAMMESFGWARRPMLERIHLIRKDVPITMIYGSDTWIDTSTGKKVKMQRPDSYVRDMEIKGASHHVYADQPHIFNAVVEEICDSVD
UniProt P49588, whole entry, looked up: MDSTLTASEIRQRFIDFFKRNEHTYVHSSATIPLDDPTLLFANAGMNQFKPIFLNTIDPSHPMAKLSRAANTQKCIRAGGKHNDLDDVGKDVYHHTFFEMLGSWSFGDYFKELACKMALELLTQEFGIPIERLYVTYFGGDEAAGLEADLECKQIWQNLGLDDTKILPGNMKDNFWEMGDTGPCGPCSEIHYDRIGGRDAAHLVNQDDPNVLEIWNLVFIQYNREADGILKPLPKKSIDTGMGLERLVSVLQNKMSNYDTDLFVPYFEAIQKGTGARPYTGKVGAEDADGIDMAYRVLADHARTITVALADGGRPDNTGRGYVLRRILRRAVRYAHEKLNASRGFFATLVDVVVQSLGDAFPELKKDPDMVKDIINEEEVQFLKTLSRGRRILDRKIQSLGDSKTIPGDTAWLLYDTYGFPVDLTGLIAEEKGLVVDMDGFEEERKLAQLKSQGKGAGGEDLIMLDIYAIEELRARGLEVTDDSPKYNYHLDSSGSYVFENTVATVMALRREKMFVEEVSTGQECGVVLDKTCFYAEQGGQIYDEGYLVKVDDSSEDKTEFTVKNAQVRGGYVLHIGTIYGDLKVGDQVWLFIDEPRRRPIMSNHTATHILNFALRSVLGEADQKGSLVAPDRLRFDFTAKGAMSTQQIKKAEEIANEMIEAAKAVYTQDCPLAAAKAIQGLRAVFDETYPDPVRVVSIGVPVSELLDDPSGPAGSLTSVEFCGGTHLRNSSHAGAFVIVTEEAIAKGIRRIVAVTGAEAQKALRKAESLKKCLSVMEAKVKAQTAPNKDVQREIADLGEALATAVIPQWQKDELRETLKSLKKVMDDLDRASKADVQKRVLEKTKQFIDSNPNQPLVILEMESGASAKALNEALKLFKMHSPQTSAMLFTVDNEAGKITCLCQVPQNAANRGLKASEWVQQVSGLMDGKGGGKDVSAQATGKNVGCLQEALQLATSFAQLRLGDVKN
UniProt O96019, whole entry, looked up: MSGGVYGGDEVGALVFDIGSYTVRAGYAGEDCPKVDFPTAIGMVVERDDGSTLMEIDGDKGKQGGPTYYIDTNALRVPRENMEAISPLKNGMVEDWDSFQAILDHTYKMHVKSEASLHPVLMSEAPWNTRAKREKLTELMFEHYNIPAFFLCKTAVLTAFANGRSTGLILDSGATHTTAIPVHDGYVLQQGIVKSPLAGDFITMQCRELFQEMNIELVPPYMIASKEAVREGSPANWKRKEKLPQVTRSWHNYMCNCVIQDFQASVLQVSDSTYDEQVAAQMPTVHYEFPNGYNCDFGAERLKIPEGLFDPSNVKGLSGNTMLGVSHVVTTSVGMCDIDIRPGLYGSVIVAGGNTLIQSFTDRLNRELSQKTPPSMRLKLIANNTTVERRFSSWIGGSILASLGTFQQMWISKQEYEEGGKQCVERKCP
UniProt Q9NZ32, whole entry, looked up: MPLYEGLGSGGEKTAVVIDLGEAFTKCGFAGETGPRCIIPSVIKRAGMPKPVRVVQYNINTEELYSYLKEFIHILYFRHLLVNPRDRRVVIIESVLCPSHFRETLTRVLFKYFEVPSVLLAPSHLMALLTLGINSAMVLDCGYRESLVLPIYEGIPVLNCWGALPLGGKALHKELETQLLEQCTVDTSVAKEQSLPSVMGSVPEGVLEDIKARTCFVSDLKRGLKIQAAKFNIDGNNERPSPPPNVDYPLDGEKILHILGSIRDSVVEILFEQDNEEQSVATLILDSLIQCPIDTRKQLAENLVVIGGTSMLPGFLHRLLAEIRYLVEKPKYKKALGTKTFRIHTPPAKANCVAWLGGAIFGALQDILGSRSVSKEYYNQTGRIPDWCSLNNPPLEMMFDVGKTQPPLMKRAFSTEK

[2] = compound: CC1=C(SC2=C1C(=N[C@H](C3=NN=C(N32)C)CC(=O)N)C4=CC=C(C=C4)Cl)C
Method in brief: as §1

[3] = compound: CC1=C2C(=CC=C1)N=C(N(C2=O)C3=CC=CC=C3C)CN4C=NC5=C(N=CN=C54)N
Method in brief: as §1

[4] = compound: Cc1sc2c(c1C)C(c1ccc(Cl)cc1)=N[C@@H](CC(=O)OC(C)(C)C)c1nnc(C)n1-2
Method in brief: as §1

[5] = compound: c1ccc([C@@H]2C[C@H]2NC2CCNCC2)cc1
Method in brief: as §1

Measured: log2 fold change

ACSM3 (UniProt Q53FZ2)
inactive: [1] -0.046 | [2] -0.051 | [3] 0.091 | [4] -0.03 | [5] -0.029

ACAA2 (UniProt P42765)
inactive: [1] 0.035 | [2] 0.027 | [3] 0.021 | [4] -0.03 | [5] -0.006

ABL1 isoform 2 (UniProt P00519)
inactive: [1] 0.072 | [2] 0.031 | [3] -0.013 | [4] 0.093 | [5] -0.011

ABCF3 (UniProt Q9NUQ8)
inactive: [1] -0.047 | [2] -0.113 | [3] -0.05 | [4] 0.137 | [5] 0.031

ACSL5 isoform 3 (UniProt Q9ULC5)
inactive: [1] -0.024 | [2] 0.043 | [3] 0.101 | [4] 0.057 | [5] -0.178

ACADVL isoform 3 (UniProt P49748)
inactive: [1] 0.019 | [2] 0.05 | [3] 0.009 | [4] -0.011 | [5] -0.018

ABI2 (UniProt Q9NYB9)
inactive: [1] 0 | [2] 0.038 | [3] 0.021 | [4] -0.034 | [5] -0.03

ACSL1 (UniProt P33121)
inactive: [1] -0.019 | [2] 0.043 | [3] 0.064 | [4] 0.001 | [5] -0.03

ABRACL (UniProt Q9P1F3)
inactive: [1] -0.353

ADAR isoform 4 (UniProt P55265)
inactive: [1] 0.065 | [2] -0.005 | [3] -0.376 | [4] -0.024 | [5] -0.007

ADAM10 (UniProt O14672)
inactive: [1] -0.001 | [2] 0.031 | [3] 0.03 | [4] 0.021 | [5] -0.031

AARSD1 isoform 3 (UniProt Q9BTE6)
inactive: [1] -0.053 | [2] -0.068 | [3] 0.039 | [4] 0.047 | [5] 0.023

ADAMTSL4 isoform 3 (UniProt Q6UY14)
inactive: [1] -0.057 | [2] -0.083 | [3] 0.006 | [4] 0.026 | [5] 0.021

ABCA2 isoform 3 (UniProt Q9BZC7)
inactive: [1] 0.027

ABRAXAS2 (UniProt Q15018)
inactive: [1] 0.017 | [2] 0.029 | [3] 0.032 | [4] -0.026 | [5] 0.019

ACBD6 (UniProt Q9BR61)
inactive: [1] -0.033 | [2] 0.087 | [3] 0.1 | [4] -0.072 | [5] 0.073

ACOT13 (UniProt Q9NPJ3)
inactive: [1] 0.05 | [2] 0.047 | [3] 0.01 | [4] -0.014 | [5] 0.04

ABHD4 (UniProt Q8TB40)
inactive: [1] 0.12

ABCE1 (UniProt P61221)
inactive: [1] 0.005 | [2] 0.006 | [3] 0.008 | [4] 0.003 | [5] 0.001

AARS (UniProt P49588)
inactive: [1] -0.011 | [2] 0.041 | [3] 0.016 | [4] -0.01 | [5] -0.014

2 entries drawn at random from the list so far, as already listed:
ACSM3 (UniProt Q53FZ2)
inactive: [1] -0.046 | [2] -0.051 | [3] 0.091 | [4] -0.03 | [5] -0.029

ABHD4 (UniProt Q8TB40)
inactive: [1] 0.12

Continuation.

ACTL6A (UniProt O96019)
inactive: [1] -0.022 | [2] 0.032 | [3] 0.066 | [4] -0.008 | [5] -0.001

ACTR10 (UniProt Q9NZ32)
inactive: [1] -0.004 | [2] -0.051 | [3] -0.024 | [4] -0.036 | [5] 0.128

ACADS (UniProt P16219)
inactive: [1] -0.009 | [2] 0.05 | [3] -0.09 | [4] -0.012 | [5] -0.049

ABCB6 (UniProt Q9NP58)
inactive: [1] 0.001 | [2] 0.003 | [3] 0.05 | [4] -0.049 | [5] 0.012

ACACA isoform 4 (UniProt Q13085)
inactive: [1] -0.053 | [2] -0.031 | [3] 0.014 | [4] 0.088 | [5] 0.014

ACOX1 isoform 2 (UniProt Q15067)
inactive: [1] -0.002 | [2] 0.011 | [3] -0.001 | [4] -0.052 | [5] 0.014

Source: the supplement of paper PMC10849652
